From publication PMC8510536
No constants are given. Whether binding was seen depends on the method and setting. Binding seen in cells or lysates may run through a third protein. Binding calls can cover weak binding; strength is not graded here.

Sequences of proteins named here, by UniProt entry; tags and fusion partners are left off. A change or cut given only in a name is not applied to a line headed by its entry.
UniProt J9VUC9: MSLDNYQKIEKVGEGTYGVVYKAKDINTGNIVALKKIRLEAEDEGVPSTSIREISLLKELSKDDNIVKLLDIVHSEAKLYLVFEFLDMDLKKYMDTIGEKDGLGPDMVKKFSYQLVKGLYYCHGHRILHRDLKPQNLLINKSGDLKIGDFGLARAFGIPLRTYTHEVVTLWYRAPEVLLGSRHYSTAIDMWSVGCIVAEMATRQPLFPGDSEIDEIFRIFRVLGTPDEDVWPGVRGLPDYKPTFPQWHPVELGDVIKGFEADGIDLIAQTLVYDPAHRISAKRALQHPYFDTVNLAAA
UniProt J9VV14: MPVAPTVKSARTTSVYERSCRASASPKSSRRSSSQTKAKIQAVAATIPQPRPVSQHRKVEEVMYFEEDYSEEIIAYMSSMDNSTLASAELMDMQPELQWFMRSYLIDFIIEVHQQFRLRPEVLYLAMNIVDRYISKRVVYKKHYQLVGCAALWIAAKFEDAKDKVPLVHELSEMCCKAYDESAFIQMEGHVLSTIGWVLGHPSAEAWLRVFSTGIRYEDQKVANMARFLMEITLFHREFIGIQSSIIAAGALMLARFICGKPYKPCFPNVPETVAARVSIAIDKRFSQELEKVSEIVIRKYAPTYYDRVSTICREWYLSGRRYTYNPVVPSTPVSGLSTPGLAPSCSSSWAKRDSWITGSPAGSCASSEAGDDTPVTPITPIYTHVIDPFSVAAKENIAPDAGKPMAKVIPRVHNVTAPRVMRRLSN

Target: Cdk1-Myc (C. neoformans) (UniProt J9VUC9)
Assay: co-IP; Lysates of the CLN1-His6 CDK1-Myc strain collected at 0 to 90 min (15-min intervals) after release from stationary phase into fresh YPD; Cdk1-Myc precipitated with the Pierce c-Myc-tag IP/co-IP kit; Cln1-His6 detected by near-infrared Western blot with anti-His antibody; CDK1-Myc strain lysate as negative control

binding: binds
Substance: Cln1-His6 (from UniProt J9VV14)
